Laboratory results: PubChem BioAssay AID504784 (Drosophila RNAi Screening Center, 2011)

Aim: 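Search for regulators of lipid droplet storage in oleate-fed fly cells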 (primary screen)
System: Drosophila Kc167 embryonic cells
Knock-down reagent: long dsRNA against Drosophila genes, about 250 ng dsRNA per well
Time to read-out: 4 days
Challenge: cells fed 400 µM oleic acid bound to BSA
Measured: 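Cells imaged and segmented; ratio of lipid droplet area to nuclear area, log-transformed, then normalised as a B-score over the screen; higher means more stored lipid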
Direction: droplet/nuclear area B-score: higher = more stored lipid (overstorage)
The screen tested about 17,000 reagents; this is an unselected part of those that have a named target and a result. 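Each column is one replicate's B-score; the combined score over replicates was not deposited, so single values may mislead.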 No sequences are given here.

What did the screen give for CG10602 [DRSC02075]?
droplet/nuclear area B-score, replicate 1: 0.0138; droplet/nuclear area B-score, replicate 2: 0.0129

What is on record for CG8840 [DRSC00713]?
droplet/nuclear area B-score, replicate 1: -2.73; droplet/nuclear area B-score, replicate 2: -0.696

Which result is listed for GluRIIA [DRSC03334]?
droplet/nuclear area B-score, replicate 1: 0.437; droplet/nuclear area B-score, replicate 2: -1.42

How did the screen score CG31038 [DRSC15051]?
droplet/nuclear area B-score, replicate 1: 0.22

How did the screen score CG31038 [DRSC16326]?
droplet/nuclear area B-score, replicate 1: 1.24; droplet/nuclear area B-score, replicate 2: -1.02

Which result is listed for CG31038 [DRSC16327]?
droplet/nuclear area B-score, replicate 1: 0.152

What did the screen give for HP1D3csd [DRSC19548]?
droplet/nuclear area B-score, replicate 1: 0.182; droplet/nuclear area B-score, replicate 2: 0.49

With SdhA [DRSC07547], what does the deposit list?
droplet/nuclear area B-score, replicate 1: -1.34; droplet/nuclear area B-score, replicate 2: -0.369

What is on record for Flo1 [DRSC07427]?
droplet/nuclear area B-score, replicate 1: -2.69; droplet/nuclear area B-score, replicate 2: -3.08

With CG6878 [DRSC10737], what was measured?
droplet/nuclear area B-score, replicate 1: 0.0217; droplet/nuclear area B-score, replicate 2: -0.426

What did the screen give for CG3308 [DRSC15474]?
droplet/nuclear area B-score, replicate 1: 1.73; droplet/nuclear area B-score, replicate 2: -0.187

For pros [DRSC12856], what does the deposit list?
droplet/nuclear area B-score, replicate 1: -1.04; droplet/nuclear area B-score, replicate 2: -0.584

What is on record for pros [DRSC17032]?
droplet/nuclear area B-score, replicate 1: -5.45; droplet/nuclear area B-score, replicate 2: -2.66

Which result is listed for pros [DRSC22612]?
droplet/nuclear area B-score, replicate 1: 1.02; droplet/nuclear area B-score, replicate 2: 1.98

How did the screen score Xrcc2 [DRSC19984]?
droplet/nuclear area B-score, replicate 1: 0.455; droplet/nuclear area B-score, replicate 2: 0.293

What did the screen give for Invadolysin [DRSC15527]?
droplet/nuclear area B-score, replicate 1: 0.265; droplet/nuclear area B-score, replicate 2: 1.43

Laid out differently: results already given.
gene,DRSC id,"droplet/nuclear area B-score, replicate 1","droplet/nuclear area B-score, replicate 2"
CG10602,DRSC02075,0.0138,0.0129
CG8840,DRSC00713,-2.73,-0.696
GluRIIA,DRSC03334,0.437,-1.42
